Measurements as given in the supplement of paper PMC7024190.
Values joined by “and” are separate entries in the source; they are usually repeats but may differ in a detail not shown here. Identical values can stand only once. The list shows a part of the results. This data set is noisy: repeats of one test often differ as much as different tests do.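 The cells were human embryonic kidney cells carrying a Renilla luciferase gene, driven by the HSV-TK promoter, on a plasmid put in briefly by transfection. This is the first-round screen of about ten thousand compounds, looking for ones that raise reporter output.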

Each compound was assayed on HEK 293FT (assay: log relative Renilla luciferase luminescence (reporter expression vs reference, reference not stated) (log (base not stated)); higher = higher recombinant reporter expression). Conditions: 10 µM; time after transfection 48 h.

SMILES | log
CC1=C(C(=O)Nc2ccccc2)SCCO1 [Carboxin] | 0.0211
NNC(=O)CN1C(=O)CN=C(c2ccccc2)c2cc(Br)ccc21 [Gidazepam] | 0.109
Cc1nnc2n1-c1ccc(Cl)cc1C(c1ccccc1)=NC2 [Alprazolam] | -0.0746
CC1(C)S[C@@H]2[C@H](N)C(=O)N2[C@H]1C(=O)O [Aminopenicillanic acid] | 0.0695
CNCC(=O)c1ccc(O)c(O)c1 [Adrenalone] | 0.0664
COc1ccc(-c2cc(=O)c3c(OC)c(OC)c(OC)cc3o2)cc1 [Tetramethylscutellarein] | -0.00347
c1ccc2c(c1)Sc1ccccc1N2CC1CN2CCC1CC2 (stereo not given) [Mequitazine] | 0.0725
CN1CCc2cc3c(cc2[C@@H]1[C@@H]1OC(=O)c2c1ccc1c2OCO1)OCO3 [Adlumidine] | -0.236
COc1ccc2[nH]cc(CCN(C)C)c2c1 [Methoxydimethyltryptamine] | 0.0125
CCC1(c2ccccc2)C(=O)NC(=O)N(C)C1=O (stereo not given) [Methylphenobarbital] | -0.382
O=C(O)CCC(=O)OC1N=C(c2ccccc2Cl)c2cc(Br)ccc2NC1=O (stereo not given) [Cinazepam] | 0.0576
Cn1c(=O)c2nncnc2n(C)c1=O [Isofervenulin] | -0.289
C[C@]12CC[C@H](O)C[C@H]1CC[C@@H]1[C@@H]2CC[C@]2(C)[C@@H](C3=CC(=O)OC3)CC[C@]12O [Digitoxigenin] | -1.33
O=C1Nc2ccc(Br)cc2C(c2ccccc2Cl)=NC1O (stereo not given) [3-Hydroxyfenazepam] | 0.0217
COc1oc([C@H]2C/C(=C/C(C)=C/c3ccc([N+](=O)[O-])cc3)CO2)c(C)c(=O)c1C [Aureothin] | -1.27
O=C1Nc2ccc(Cl)cc2C(c2ccccc2)=NC1O (stereo not given) [Oxazepam] | 0.135
CCOP(=O)(OCC)Oc1ccc([N+](=O)[O-])cc1 [Paraoxon] | 0.0256
CCN(CC)CCOC(=O)C(C)(c1ccccc1)c1ccccc1 [Aprofene] | 0.0239
CCC1(c2ccccc2)C(=O)N(COC)C(=O)N(COC)C1=O [Eterobarb] | -1.36
O=P(N1CC1)(N1CC1)N1CCN(P(=O)(N2CC2)N2CC2)CC1 [Dipin] | 0.0518
C/C=C/c1cc(OC)c(OC)cc1OC [Alpha-asarone] | 0.0607
CC1CC(C)C(=O)C(C(O)CC2CC(=O)NC(=O)C2)C1 (stereo not given) [Isocycloheximide] | -1.34
CC(=O)O[C@H]1CC[C@H]2[C@@H]3CCC4=CC(=O)CC[C@]4(C)[C@H]3CC[C@]12C [Testosterone acetate] | -0.00108
COc1ccn(C)c(=O)c1C#N [Ricinine] | -0.0795
CCCCCCCCCC(=O)O[C@H]1CC[C@H]2[C@@H]3CCC4=CC(=O)CC[C@]4(C)[C@H]3CC[C@]12C [Testosterone decanoate] | 0.0416

Tested on: HEK 293FT
Test: as above
Conditions: 10 µM; time after transfection 48 h
Remark: another data set of the same source

SMILES | log
CCOC(=O)C1(c2ccccc2)CCN(CCC(C#N)(c2ccccc2)c2ccccc2)CC1 | -0.327
Cc1nnc2n1-c1ccc(Cl)cc1C(c1ccccc1)=NC2 [Alprazolam] | 0.337
COc1cc2c(cc1OC)[C@@]13CCN4CC5=CCO[C@H]6CC(=O)N2[C@H]1[C@H]6[C@H]5C[C@H]43 [Brucine] | 0.153
CN1C(=O)CN=C(c2ccccc2)c2cc(Cl)ccc21 [Diazepam] | -0.257
c1ccc2c3c([nH]c2c1)CNCC3 | 0.0745
COc1ccc2[nH]cc(CCN)c2c1 [5-Methoxytryptamine] | -1.05
C[C@]12CC[C@H](O)CC1=CC[C@@H]1[C@@H]2CC[C@]2(C)C(=O)CC[C@@H]12 | -0.983
NC1=NC(=O)C(c2ccccc2)O1 (stereo not given) [Pemoline] | -0.0803
CC[C@@H]1C=CC=CC[C@H](C)[C@@H](O)[C@@H](C)C(=O)[C@H](C)[C@@H](O)[C@H](C)C(=O)[C@H](C)[C@@H](O)[C@H](C)C=CC(=O)O[C@H]2[C@@H](C)[C@@H](CC1)O[C@@]1(CC[C@@H](C)[C@@H](C[C@H](C)O)O1)[C@@H]2C | -0.498
C[C@H]1CCC[C@H](O)CCCCCc2cc(O)cc(O)c2C(=O)O1 | -0.0897
CC(NC(C)(C)C)C(=O)c1cccc(Cl)c1 (stereo not given) | -0.239 and 0.00632
C[N+]1(C)CCN(c2ccccc2)CC1 | -0.386
CC(O)(CS(=O)(=O)c1ccc(F)cc1)C(=O)Nc1ccc(C#N)c(C(F)(F)F)c1 (stereo not given) | -0.0265
C=C(C)[C@@H]1[C@H]2OC(=O)[C@@H]1[C@]1(O)C[C@H]3O[C@]34C(=O)O[C@H]2[C@]14C.CC(C)(O)[C@@H]1[C@H]2OC(=O)[C@@H]1[C@]1(O)C[C@H]3O[C@]34C(=O)O[C@H]2[C@]14C [Picrotin - Picrotoxinin] | 0.103
COc1cccc(C2(O)CCCCC2CN(C)C)c1 (stereo not given) [Tramadol] | 0.0423
